PubChem BioAssay AID504784 | Drosophila RNAi Screening Center, 2011

Purpose: 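Genome-wide knock-down for genes giving too much or too little stored lipid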 (primary screen)
Cell system: Drosophila Kc167 embryonic cells
Reagent: long dsRNA against Drosophila genes, about 250 ng dsRNA per well
Timing: 4 days
Challenge: cells fed 400 µM oleic acid bound to BSA
Read-out: 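Cells imaged and segmented; ratio of lipid droplet area to nuclear area, log-transformed, then normalised as a B-score over the screen; higher means more stored lipid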
Scale: droplet/nuclear area B-score: higher = more stored lipid (overstorage)
In all, the deposit lists about 17,000 reagents; below is a random part of those with a known target gene and a result. 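Each column is one replicate's B-score; the combined score over replicates was not deposited, so single values may mislead.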 A plus sign joins genes that one reagent is predicted to hit. No sequences are given here.

| target gene | amplicon | droplet/nuclear area B-score, replicate 1 | droplet/nuclear area B-score, replicate 2 | droplet/nuclear area B-score, replicate 3 |
| --- | --- | --- | --- | --- |
| LManIII (GeneID 34203) | DRSC03221 | 0.449 | 2.13 | – |
| corolla (GeneID 32739) | DRSC20102 | -1.41 | 0.799 | – |
| Arc2 (GeneID 36597) | DRSC06436 | 1.28 | 1.71 | – |
| ytr (GeneID 47457) | DRSC04306 | 0.269 | 0.102 | – |
| ytr (GeneID 47457) | DRSC22073 | 0.0256 | -0.317 | – |
| fd96Ca (GeneID 43010) | DRSC16946 | 0.456 | -0.516 | – |
| ast (GeneID 33282) | DRSC00803 | -0.854 | -1.63 | – |
| CG31210 (retired record) + CG4836 | DRSC22066 | -0.348 | -1.13 | – |
| TfIIA-S-2 (GeneID 31048) | DRSC17791 | 0.343 | -0.0736 | – |
| CG3609 (GeneID 33421) | DRSC00620 | 1.38 | -1.8 | – |
| Ent3 (GeneID 39461) | DRSC09822 | -0.13 | 0.61 | – |
| Gapdh1 (GeneID 35728) | DRSC07433 | -1.23 | -0.985 | – |
| Galphas (GeneID 37805) | DRSC04616 | 1.22 | 0.651 | – |
| yellow-h (GeneID 43779) | DRSC17141 | 0.564 | -0.188 | – |
| CG14435 (GeneID 31628) | DRSC17928 | 0.319 | -1.7 | – |
| CG14435 (GeneID 31628) | DRSC23282 | -0.757 | -0.813 | – |
| Ing5 (GeneID 34752) | DRSC03188 | 0.061 | 1.75 | – |
| bc10 (GeneID 38628) | DRSC11326 | -1.09 | 1.03 | – |
| Fst (GeneID 41169) | DRSC16491 | 0.941 | -0.0463 | – |
| CG13605 (GeneID 42858) | DRSC14608 | -0.526 | -2.44 | – |
| CG13148 (GeneID 36398) | DRSC06275 | 3.27 | -0.672 | – |
| Nna1 (GeneID 32329) | DRSC19404 | 0.687 | 1.44 | 0.801 |
| CG14598 (GeneID 40893) | DRSC12541 | -0.177 | 0.233 | – |
| Inx6 (GeneID 31645) | DRSC20579 | 1.68 | -0.0752 | – |
| CG8160 (GeneID 36701) | DRSC07086 | -0.381 | 1.1 | -0.637 |
| CG8160 (GeneID 36701) | DRSC21434 | -0.934 | -1.04 | – |
| CG12947 (GeneID 41201) | DRSC14575 | 1.52 | 0.0917 | – |
| sut1 (GeneID 35774) | DRSC07700 | -0.75 | -2.08 | – |
| CG33155 + mRpL53 | DRSC05461 | 1 | 1.65 | – |
| CG11911 (GeneID 33206) | DRSC00331 | -0.793 | -1.47 | – |
| SA2 (GeneID 38167) | DRSC08385 | 0.117 | 3.26 | – |
| Kal1 (GeneID 42865) | DRSC15983 | -0.578 | 2.48 | – |
| mthl7 (GeneID 38910) | DRSC10852 | -0.763 | 2.09 | – |
| lin (GeneID 45325) | DRSC07644 | -2.06 | 0.0478 | – |
| fusl (GeneID 33765) | DRSC02351 | -2.02 | 0.683 | – |
| Fem-1 (GeneID 37344) | DRSC07322 | -0.642 | -2.14 | – |
| yellow-f2 (GeneID 41596) | DRSC16372 | 0.902 | 0.871 | – |
| CG4763 (GeneID 37771) | DRSC04009 | -1.44 | -0.539 | – |
| CG4763 (GeneID 37771) | DRSC04487 | 0.289 | -0.688 | – |
| RnrL (GeneID 34392) | DRSC03413 | -1.52 | -0.429 | – |
| CG5704 (GeneID 48613) | DRSC08572 | 2.75 | -0.0746 | – |
| CG30334 (GeneID 246545) | DRSC05345 | 1.13 | -0.529 | – |
| CG9497 (GeneID 33884) | DRSC03234 | 1.3 | 2.53 | – |

9 entries already listed, arranged by “droplet/nuclear area B-score, replicate 2”, highest first.
| target gene | amplicon | droplet/nuclear area B-score, replicate 1 | droplet/nuclear area B-score, replicate 2 | droplet/nuclear area B-score, replicate 3 |
| --- | --- | --- | --- | --- |
| yellow-f2 (GeneID 41596) | DRSC16372 | 0.902 | 0.871 | – |
| fusl (GeneID 33765) | DRSC02351 | -2.02 | 0.683 | – |
| lin (GeneID 45325) | DRSC07644 | -2.06 | 0.0478 | – |
| CG5704 (GeneID 48613) | DRSC08572 | 2.75 | -0.0746 | – |
| RnrL (GeneID 34392) | DRSC03413 | -1.52 | -0.429 | – |
| CG30334 (GeneID 246545) | DRSC05345 | 1.13 | -0.529 | – |
| CG4763 (GeneID 37771) | DRSC04009 | -1.44 | -0.539 | – |
| CG4763 (GeneID 37771) | DRSC04487 | 0.289 | -0.688 | – |
| Fem-1 (GeneID 37344) | DRSC07322 | -0.642 | -2.14 | – |

More records follow:
| target gene | amplicon | droplet/nuclear area B-score, replicate 1 | droplet/nuclear area B-score, replicate 2 | droplet/nuclear area B-score, replicate 3 |
| --- | --- | --- | --- | --- |
| PIG-S (GeneID 42979) | DRSC14643 | 1.89 | 3.2 | – |
| PIG-S (GeneID 42979) | DRSC15388 | 0.775 | -0.295 | – |
| PIG-S (GeneID 42979) | DRSC15952 | 0.142 | 0.514 | – |
| CG17078 (GeneID 33195) | DRSC00484 | 1.17 | 0.675 | – |
| CG4424 (GeneID 42390) | DRSC15576 | 0.194 | 1.24 | – |
| CG13309 (GeneID 39012) | DRSC09980 | 0.0966 | -0.0827 | – |
| Arp53D (GeneID 36879) | DRSC05923 | -0.897 | 0.295 | – |
| CG5174 (GeneID 37117) | DRSC06920 | 0.559 | -0.368 | – |
| CG11905 (GeneID 39895) | DRSC09863 | 0.181 | -0.147 | -1.5 |
| CG31676 (GeneID 35351) | DRSC02387 | 0.997 | 1.42 | – |
| salm (GeneID 34569) | DRSC03606 | -1.18 | -0.316 | – |
| CG8958 (GeneID 32575) | DRSC20134 | -0.0927 | 2.36 | – |
| CG3603 (GeneID 31289) | DRSC18317 | -0.0364 | 0.385 | – |
| Dyro (GeneID 39271) | DRSC10598 | 0.303 | -0.0254 | – |
| CG34325 (GeneID 32656) | DRSC19802 | -0.714 | -0.612 | – |
| CG34325 (GeneID 32656) | DRSC20200 | -0.154 | 0.00135 | – |
| CG13527 (GeneID 37615) | DRSC04169 | 0.822 | -0.0931 | – |
| Rpt5 (GeneID 42805) | DRSC16842 | 0.737 | 2.11 | – |
| CG31516 (GeneID 318776) | DRSC11994 | -0.9 | -0.0391 | – |
| CG31802 (GeneID 318949) | DRSC02459 | 0.107 | 0.402 | – |
| DIP-delta (GeneID 5740816) | DRSC10214 | 1.01 | 0.246 | – |
| DIP-delta (GeneID 5740816) | DRSC10450 | 0.27 | -0.911 | – |
| dx (GeneID 31589) | DRSC18767 | -0.599 | 0.477 | – |
| CG11159 (GeneID 37341) | DRSC06050 | 0.639 | -0.502 | – |
| Tsp42Eb + CG30160 | DRSC04961 | 0.11 | -0.24 | – |
| Tsp42Eb + CG30160 | DRSC06791 | -0.166 | -0.456 | – |
| sstn (GeneID 39643) | DRSC10753 | -0.213 | -0.868 | – |
| Ugt36E1 (GeneID 35139) | DRSC02599 | -1.86 | -0.638 | – |
| dpr9 (GeneID 2768670) | DRSC14534 | -0.182 | 0.00671 | – |
| dpr9 (GeneID 2768670) | DRSC14985 | -0.442 | -0.262 | – |
| dpr9 (GeneID 2768670) | DRSC14986 | -0.504 | -0.227 | – |
| Cpr76Bb (GeneID 40121) | DRSC11061 | 1.98 | -0.1 | – |
| Cpr76Bb (GeneID 40121) | DRSC22870 | -0.525 | -0.438 | – |
| Hmg-2 (GeneID 37407) | DRSC04554 | -0.756 | -2.32 | – |
| EMC5 (GeneID 35159) | DRSC02469 | 0.0444 | 0.579 | – |
| CG33465 (GeneID 3885587) | DRSC05587 | -0.297 | 1.04 | – |
| CG44837 (GeneID 5740513) | DRSC10133 | 0.837 | 0.78 | – |
| CG44837 (GeneID 5740513) | DRSC10558 | -0.556 | 1.44 | – |
| bai (GeneID 42996) | DRSC14388 | -1.5 | 0.619 | – |
| IP3K2 (GeneID 32285) | DRSC19500 | -0.867 | -1.22 | -0.326 |
| IP3K2 (GeneID 32285) | DRSC19747 | -0.618 | 0.291 | 0.881 |
| IP3K2 (GeneID 32285) | DRSC22614 | 0.0281 | -0.552 | – |
